Values quoted from earlier work as cited in patent publication US20190062383A1 (priority 2013, published 2019).

Test system: Kv1.1, Kv1.2, Kv1.4, Kv1.5, and Kv1.6
Settings: cited from earlier work

Compound: CC[C@H](C)[C@@H]1NC(=O)[C@@H]2CSSC[C@@H]3NC(=O)[C@H](CCCCN)NC(=O)CNC(=O)[C@H](CC(N)=O)NC(=O)[C@H](CCSC)NC(=O)[C@H](CSSC[C@H](NC(=O)[C@H](CCCCN)NC(=O)[C@@H](NC(=O)[C@H](CC(=O)O)NC(=O)[C@@H](NC(=O)[C@@H]4CCCN4C(=O)[C@@H](NC(=O)CN)C(C)C)[C@@H](C)O)C(C)C)C(=O)N[C@@H](CCCNC(=N)N)C(=O)NCC(=O)N[C@@H](CO)C(=O)N4CCC[C@H]4C(=O)N[C@@H](CCC(N)=O)C(=O)N2)NC(=O)[C@H](CCCCN)NC(=O)CNC(=O)[C@H](Cc2ccccc2)NC(=O)[C@H](CCCNC(=N)N)NC(=O)[C@H](CCSC)NC(=O)CNC(=O)[C@H](C)NC(=O)[C@H](CC(=O)O)NC(=O)[C@H](CCCCN)NC(=O)[C@H](CSSC[C@@H](C(=O)N[C@H](C(=O)N2CCC[C@H]2C(=O)N[C@@H](CCCCN)C(=O)O)[C@@H](C)O)NC(=O)[C@H](Cc2c[nH]cn2)NC3=O)NC(=O)[C@@H]2CCCN2C(=O)[C@H](CCC(N)=O)NC1=O [OdK2]
- activity on other Kv1.x subtypes tested: no activity
